Experimental data reported in paper PMC12160919.
No constants are given. Whether binding was seen depends on the method and setting. In cells and extracts the contact can be indirect. Some results given as binding are weak or reduced against the parent protein; the word gives no strength. Sequences can lack the tags named with a protein.

Sequences of proteins named here, by UniProt entry; tags and fusion partners are left off. A change or cut given only in a name is not applied to a line headed by its entry. Residues count along the entry.
UniProt P31749: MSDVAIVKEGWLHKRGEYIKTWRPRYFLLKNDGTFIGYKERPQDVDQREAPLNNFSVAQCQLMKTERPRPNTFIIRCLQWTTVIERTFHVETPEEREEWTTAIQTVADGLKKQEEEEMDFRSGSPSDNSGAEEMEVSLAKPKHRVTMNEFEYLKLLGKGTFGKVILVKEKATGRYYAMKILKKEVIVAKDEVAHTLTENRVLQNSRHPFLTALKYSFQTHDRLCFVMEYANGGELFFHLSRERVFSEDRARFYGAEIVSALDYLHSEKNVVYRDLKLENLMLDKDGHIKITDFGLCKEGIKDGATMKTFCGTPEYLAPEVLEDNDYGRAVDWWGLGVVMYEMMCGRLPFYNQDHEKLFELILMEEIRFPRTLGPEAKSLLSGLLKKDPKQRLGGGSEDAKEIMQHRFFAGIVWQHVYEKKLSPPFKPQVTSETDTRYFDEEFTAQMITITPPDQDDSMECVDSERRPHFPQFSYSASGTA
AKT1 kinase domain-GFP (KD-GFP): residues 150-408 of P31749

Tests used:
[1] = target: AKT1 kinase domain-GFP (KD-GFP) (UniProt P31749); assay: co-IP; HA-CYPJ and PH/KD/RD-GFP plasmids co-transfected into 293T cells; IP with anti-GFP antibody; Western blot
Flag-AKT1 = Flag-AKT1 (UniProt P31749); assay: co-IP; HA-CYPJ and Flag-AKT1/2 plasmids co-transfected into 293T cells; IP with anti-Flag on Protein A/G magnetic beads, overnight at 4 °C; Western blot

B1: HA-CYPJ (cyclophilin J) (protein, UniProt Q9H2H8 1-161)
chain: MSVTLHTDVGDIKIEVFCERTPKTCENFLALCASNYYNGCIFHRNIKGFMVQTGDPTGTGRGGNSIWGKKFEDEYSEYLKHNVRGVVSMANNGPNTNGSQFFITYGKQPHLDMKYTVFGKVIDGLETLDELEKLPVNEKTYRPLNDVHIKDITIHANPFAQ
- binding [1]: binds
- binding (Flag-AKT1): binds
